Experiment [1] deals with T1, CAPRIN1, endogenous in HEK cells (human (endogenous in HEK293)) (UniProt Q14444).
T1 sequence: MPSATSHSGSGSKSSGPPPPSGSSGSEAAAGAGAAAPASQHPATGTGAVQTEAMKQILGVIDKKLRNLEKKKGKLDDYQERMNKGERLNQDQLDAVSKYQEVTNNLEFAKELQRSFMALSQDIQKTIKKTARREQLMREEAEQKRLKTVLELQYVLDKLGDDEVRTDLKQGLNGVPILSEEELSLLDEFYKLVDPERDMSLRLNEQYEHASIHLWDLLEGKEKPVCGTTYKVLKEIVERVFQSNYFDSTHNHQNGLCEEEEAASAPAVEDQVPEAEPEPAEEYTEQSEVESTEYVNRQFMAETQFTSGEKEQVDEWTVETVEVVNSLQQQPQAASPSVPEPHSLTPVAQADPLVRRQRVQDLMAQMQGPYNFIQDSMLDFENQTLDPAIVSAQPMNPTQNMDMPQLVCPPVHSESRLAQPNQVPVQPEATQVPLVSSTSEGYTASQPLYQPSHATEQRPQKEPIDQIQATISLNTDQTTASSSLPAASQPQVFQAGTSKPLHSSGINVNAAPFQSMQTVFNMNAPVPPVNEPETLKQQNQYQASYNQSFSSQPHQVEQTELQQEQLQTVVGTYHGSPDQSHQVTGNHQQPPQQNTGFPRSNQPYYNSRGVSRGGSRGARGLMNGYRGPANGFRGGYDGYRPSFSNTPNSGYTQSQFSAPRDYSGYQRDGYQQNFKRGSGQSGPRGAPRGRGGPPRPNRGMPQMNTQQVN
Put plainly: co-IP.

The target in experiment [2] is T2, Flag-tagged CAPRIN1 (CAPRIN1-Flag/Myc) (UniProt Q14444).
T2 sequence: T1 sequence
Description: co-IP.

No constants are given. Whether binding was seen depends on the method and setting. In cells and extracts the contact can be indirect. Some entries that bind do so weakly or less than the wild type. For some assays here: Tags and fused reporters may be left off the sequences shown.

Consider “APP695 wild type, stably expressed in HEK293 cells (HEK-APP695^WT) (from UniProt P05067-4 18-695)”, for which the binding entry in experiment [1] is recorded as “binds”.
Turning to “APP695-HiBiT (wild type APP695 tagged with the small HiBiT tag) (from UniProt P05067-4 18-695)”, the binding entry in experiment [2] is recorded as “binds”.

The values are drawn from article doi:10.1101/2023.12.29.573648.
